Percent effect of library compounds

By UniProt entry, the sequences of proteins in these tests, tags left out. Residues count along the entry.
UniProt Q4DA54, 1-478: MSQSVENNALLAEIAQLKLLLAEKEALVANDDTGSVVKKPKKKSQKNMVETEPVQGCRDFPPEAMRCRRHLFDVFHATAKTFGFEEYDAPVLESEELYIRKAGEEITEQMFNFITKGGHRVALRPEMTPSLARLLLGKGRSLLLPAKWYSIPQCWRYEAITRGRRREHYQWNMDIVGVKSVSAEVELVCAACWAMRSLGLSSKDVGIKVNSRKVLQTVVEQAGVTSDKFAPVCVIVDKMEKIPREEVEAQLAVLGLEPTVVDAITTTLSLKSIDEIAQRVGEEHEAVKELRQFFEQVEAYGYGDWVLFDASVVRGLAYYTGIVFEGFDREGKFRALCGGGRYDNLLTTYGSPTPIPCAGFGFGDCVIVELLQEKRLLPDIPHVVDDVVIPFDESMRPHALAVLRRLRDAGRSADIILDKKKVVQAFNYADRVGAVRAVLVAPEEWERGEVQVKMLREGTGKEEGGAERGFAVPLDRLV
UniProt P9WPC5, whole entry: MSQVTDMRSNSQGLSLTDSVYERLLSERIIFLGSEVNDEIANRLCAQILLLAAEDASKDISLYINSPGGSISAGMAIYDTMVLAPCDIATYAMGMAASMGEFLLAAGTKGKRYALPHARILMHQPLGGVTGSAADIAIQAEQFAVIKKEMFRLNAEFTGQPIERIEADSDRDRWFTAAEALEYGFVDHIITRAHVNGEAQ
UniProt P9WPC3, whole entry partner: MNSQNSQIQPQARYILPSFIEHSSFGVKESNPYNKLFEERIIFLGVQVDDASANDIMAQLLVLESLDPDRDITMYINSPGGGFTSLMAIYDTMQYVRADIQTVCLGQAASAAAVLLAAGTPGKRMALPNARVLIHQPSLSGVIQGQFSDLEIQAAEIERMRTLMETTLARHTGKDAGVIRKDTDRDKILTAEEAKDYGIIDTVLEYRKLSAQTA
UniProt Q8IDJ8, 1-583: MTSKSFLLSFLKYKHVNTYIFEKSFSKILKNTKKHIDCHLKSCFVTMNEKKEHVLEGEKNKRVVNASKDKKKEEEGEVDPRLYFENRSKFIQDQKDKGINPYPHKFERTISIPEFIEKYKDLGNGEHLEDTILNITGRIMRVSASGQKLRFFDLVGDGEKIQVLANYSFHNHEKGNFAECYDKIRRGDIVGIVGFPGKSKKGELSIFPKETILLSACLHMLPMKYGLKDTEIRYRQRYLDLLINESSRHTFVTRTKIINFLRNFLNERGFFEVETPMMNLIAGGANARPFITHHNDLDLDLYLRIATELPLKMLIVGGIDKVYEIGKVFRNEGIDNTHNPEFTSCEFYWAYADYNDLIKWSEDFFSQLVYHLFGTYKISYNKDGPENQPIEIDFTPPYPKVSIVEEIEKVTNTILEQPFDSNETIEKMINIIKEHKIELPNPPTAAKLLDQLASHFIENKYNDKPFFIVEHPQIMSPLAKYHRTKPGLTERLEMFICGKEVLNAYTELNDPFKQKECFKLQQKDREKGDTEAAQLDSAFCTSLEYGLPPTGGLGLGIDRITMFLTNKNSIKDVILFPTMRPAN

Each number is a percent effect as filed.
The record does not define 0% and 100%; most values in the screen are far below 50% and negative numbers occur (in some assays of this library far below -100).
Compounds were drawn at random from those tested, without regard to their results.

Leishmania in macrophages: 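Cell assay of Leishmania donovani living inside macrophages; the read-out is not stated. Compounds at 30 µM. The record gives no direction; compounds that gave an IC50 in retests scored well above the rest, so higher reads as stronger inhibition. About 69,000 compounds were tested under these conditions; 1.5% (about 1,000) showed 50% or more at least once.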
TcHisRS: 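Histidine-tRNA ligase, Trypanosoma cruzi CL Brener (UniProt Q4DA54). Enzyme assay of histidyl-tRNA synthetase; the read-out is not stated. Tested at 30 µM. Direction is inferred from retests: higher values go with stronger inhibition. Size under these conditions: about 69,000 compounds, about 31 of them at 50% or above in at least one test.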
ClpP1P2: 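Protease assay of ClpP1P2, read by the AMC dye that it sets free. Target: ClpP1P2, Mycobacterium tuberculosis (UniProt P9WPC5 and UniProt P9WPC3). Compounds at 50 µM. Direction is inferred from only a few compounds that gave an IC50; most scored high, so higher reads as stronger inhibition. Most other retested compounds had strongly negative values. Of about 69,000 compounds tested this way, about 10 (0.015%) reached 50% or more in at least one test.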
Toxoplasma: 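Assay of Toxoplasma gondii numbers, read through their beta-galactosidase reporter with a colour substrate. Compounds at 10 µM. The record gives no direction; the compounds picked for IC50 retests had high values, so higher reads as fewer parasites. Of about 67,000 compounds tested this way, about 260 (0.38%) reached 50% or more in at least one test.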
PfKRS1: 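Enzyme assay of the cytosolic lysyl-tRNA synthetase in 384-well plates, read by luminescence. Target: Lysine-tRNA ligase, Plasmodium falciparum 3D7 (UniProt Q8IDJ8). Tested at 30 µM. Higher reads as stronger inhibition, judged from the few compounds that gave an IC50. Size under these conditions: about 69,000 compounds, about 49 of them at 50% or above in at least one test.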

- CCN(CC)C(=O)c1c(Br)cnn1CC | Leishmania in macrophages: 6.195%; TcHisRS: -2.312%; ClpP1P2: 2.456%; Toxoplasma: 12.45%; PfKRS1: 5.349%
- CNS(=O)(=O)c1ccccc1N1CCN(C(C)C(=O)OC)CC1 (stereo unspecified) | Leishmania in macrophages: 7.066%; TcHisRS: 6.061%; ClpP1P2: 5.639%; Toxoplasma: 1.947%; PfKRS1: 2.016%
- CC(C)N(Cc1ccccn1)C(=O)CCC(=O)c1ccccc1 | Leishmania in macrophages: 22.18%; TcHisRS: -0.5525%; ClpP1P2: -1.625%; Toxoplasma: 1.951%; PfKRS1: 0.6933%
- CC(C)(C)c1ncc(C(=O)NCCn2ccnc2)s1 | Leishmania in macrophages: -4.969%; TcHisRS: 3.571%; ClpP1P2: 10.51%; Toxoplasma: 0.7941%; PfKRS1: 1.678%
- CC(C)(C)n1ncc(NCC(O)c2ccccc2C(F)(F)F)c(Cl)c1=O (stereo unspecified) | Leishmania in macrophages: 1.281%; TcHisRS: 9.091%; ClpP1P2: 9.104%; Toxoplasma: -6.715%; PfKRS1: 0.7274%
- CNc1cc(C2CN(C(=O)c3ccn(C)n3)CCO2)nc(C)n1 (stereo unspecified) | Leishmania in macrophages: -48.78%; TcHisRS: 0.7752%; ClpP1P2: 0.4847%; Toxoplasma: -10.99%; PfKRS1: 0.02861%
- COc1ccc(C(=O)NS(=O)(=O)c2cc(Cl)sc2Cl)cc1OC(F)F | Leishmania in macrophages: 16.5%; TcHisRS: 0%; ClpP1P2: -4.956%; Toxoplasma: 4.186%; PfKRS1: 8.211%
- Clc1ccc(COCC2CCN(Cc3ccccn3)CC2)cc1 | TcHisRS: 2.646%; ClpP1P2: 7.981%; PfKRS1: 3.352%
- CCC[C@H]1CN(c2cncc(C(=O)N3CCCCC3)n2)C[C@@H]1N(C)C | Leishmania in macrophages: 6.649%; TcHisRS: 3.571%; ClpP1P2: -120.8%; Toxoplasma: -26.63%; PfKRS1: 0.8653%
- Cc1noc(CN(C)c2ccccc2)n1 | Leishmania in macrophages: 11.55%; TcHisRS: -1.19%; ClpP1P2: -10.48%; Toxoplasma: 2.838%; PfKRS1: -1.099%
- COc1cc(CNC2CCCc3c2cnn3C)cc(OC)c1 (stereo unspecified) | TcHisRS: -1.504%; ClpP1P2: 10.08%; PfKRS1: 0.7947%
- COc1ccnc(N2CCN(CC(=O)N3CCOC(C)C3)CC2)n1 (stereo unspecified) | Leishmania in macrophages: 4.371%; TcHisRS: 2.312%; ClpP1P2: -11.39%; Toxoplasma: -11.38%; PfKRS1: 0.1191%
- Cc1cc(C(=O)N2CCCCC2c2nc(C)cs2)[nH]n1 (stereo unspecified) | Leishmania in macrophages: 9.854%; TcHisRS: -2.29%; ClpP1P2: 0.4186%; Toxoplasma: 3.812%; PfKRS1: -1.31%
- Cc1cc(NC(C)c2n[nH]c(C)n2)n2nc(C)c(C)c2n1 (stereo unspecified) | Leishmania in macrophages: -6.032%; TcHisRS: -6.087%; ClpP1P2: 5.935%; Toxoplasma: 15.35%; PfKRS1: 2.044%
- CN(CC1CCCN(S(C)(=O)=O)C1)c1cnn(C)c1 (stereo unspecified) | Leishmania in macrophages: -0.921%; TcHisRS: -1.724%; ClpP1P2: -3.506%; Toxoplasma: -0.5882%; PfKRS1: 4.88%
- Cc1ccc(N2CCCN(CC3CC3)C(C(C)C)C2)nn1 (stereo unspecified) | Leishmania in macrophages: 12.41%; TcHisRS: 3.077%; ClpP1P2: -27.73%; Toxoplasma: 6.302%; PfKRS1: 0.1777%
- CCOCC1CN(c2ccc(C)nn2)Cc2cnn(CC)c21.O=C(O)C(F)(F)F.O=C(O)C(F)(F)F (stereo unspecified) | Leishmania in macrophages: 9.188%; Toxoplasma: 10.54%
- Cn1ccnc(Sc2cccc(C#N)c2)c1=O | Leishmania in macrophages: 12.22%; TcHisRS: 1.667%; ClpP1P2: -0.552%; Toxoplasma: -2.727%; PfKRS1: 7.247%
- CC(C)OCc1nn(CC2CC2)c2c1CN(Cc1ccco1)CC2 | TcHisRS: 7.767%; ClpP1P2: -17.45%; PfKRS1: 3.235%

The first 2 entries again:

{"compound": "CCN(CC)C(=O)c1c(Br)cnn1CC", "Leishmania in macrophages": 6.195, "TcHisRS": -2.312, "ClpP1P2": 2.456, "Toxoplasma": 12.45, "PfKRS1": 5.349}
{"compound": "CNS(=O)(=O)c1ccccc1N1CCN(C(C)C(=O)OC)CC1", "stereo": "stereo unspecified", "Leishmania in macrophages": 7.066, "TcHisRS": 6.061, "ClpP1P2": 5.639, "Toxoplasma": 1.947, "PfKRS1": 2.016}

The values are deposited in ChEMBL (CHEMBL3988442, “University of Dundee, Small-Polar-MMV Screening Library” (2021)).